Measured values: paper PMC10621170
These are yes or no findings as the source states them, for the method shown. In cells and extracts the contact can be indirect. Some entries that bind do so weakly or less than the wild type.

Sequences of proteins named here, by UniProt entry; tags and fusion partners are left off.
UniProt O75461: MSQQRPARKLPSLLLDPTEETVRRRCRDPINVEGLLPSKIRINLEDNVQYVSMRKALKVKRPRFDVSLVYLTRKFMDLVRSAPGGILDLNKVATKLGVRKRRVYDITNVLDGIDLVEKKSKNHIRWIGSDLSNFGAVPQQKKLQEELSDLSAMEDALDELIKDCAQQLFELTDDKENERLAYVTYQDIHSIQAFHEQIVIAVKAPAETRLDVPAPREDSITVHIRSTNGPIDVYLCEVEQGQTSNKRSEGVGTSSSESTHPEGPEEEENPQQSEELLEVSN

What was measured:
[1] = molecular target: T1, NBR1 (human (endogenous in Eca-109/PECC)) (UniProt Q14596); assay: proximity ligation; Duolink In Situ Red kit Mouse/Rabbit; cells fixed in 4% paraformaldehyde, permeabilised with 0.1% Triton X-100; antibodies to E2F6 and NBR1 overnight at 4 °C; control, LINC01592-knockdown and LINC01592-overexpressing cells
T1 sequence: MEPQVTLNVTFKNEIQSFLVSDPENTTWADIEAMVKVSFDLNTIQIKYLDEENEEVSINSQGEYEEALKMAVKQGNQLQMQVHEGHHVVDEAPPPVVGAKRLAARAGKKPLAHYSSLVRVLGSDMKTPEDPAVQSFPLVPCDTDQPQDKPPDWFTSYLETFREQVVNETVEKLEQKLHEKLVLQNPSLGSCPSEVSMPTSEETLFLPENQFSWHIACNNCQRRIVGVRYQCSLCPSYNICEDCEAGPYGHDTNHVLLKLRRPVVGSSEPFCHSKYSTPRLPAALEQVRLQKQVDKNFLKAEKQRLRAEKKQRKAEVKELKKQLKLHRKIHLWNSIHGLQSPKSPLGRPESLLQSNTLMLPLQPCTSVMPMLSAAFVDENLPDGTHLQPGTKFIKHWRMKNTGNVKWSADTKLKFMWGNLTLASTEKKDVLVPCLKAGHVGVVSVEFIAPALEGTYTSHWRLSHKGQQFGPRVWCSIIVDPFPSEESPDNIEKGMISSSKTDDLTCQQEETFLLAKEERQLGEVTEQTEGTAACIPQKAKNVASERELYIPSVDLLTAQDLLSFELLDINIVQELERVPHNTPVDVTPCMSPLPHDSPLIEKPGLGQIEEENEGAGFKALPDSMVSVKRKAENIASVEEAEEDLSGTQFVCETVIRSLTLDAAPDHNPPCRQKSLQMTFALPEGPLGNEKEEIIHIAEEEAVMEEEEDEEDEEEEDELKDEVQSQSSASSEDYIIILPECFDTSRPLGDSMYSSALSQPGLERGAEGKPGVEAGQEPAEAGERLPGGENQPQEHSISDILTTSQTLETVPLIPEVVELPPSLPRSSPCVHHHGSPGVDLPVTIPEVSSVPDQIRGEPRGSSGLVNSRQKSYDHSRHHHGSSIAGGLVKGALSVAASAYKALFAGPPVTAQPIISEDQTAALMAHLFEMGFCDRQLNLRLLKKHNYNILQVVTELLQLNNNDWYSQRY

[2] = molecular target: T1, NBR1 (human (endogenous in Eca-109/PECC)); assay: co-IP; lysates of control, LINC01592-knockdown and LINC01592-overexpressing cells (also with the mutant ΔLINC01592, Fig. S7G); which protein was precipitated not given

binding [1]: binds
binding [2]: binds
Substance: E2F6 (from UniProt O75461 1-281)
